# Laboratory results published in PubChem BioAssay AID2685 (National Center for Advancing Translational Sciences (NCATS), 2010).
# Values joined by “and” are separate entries in the source; they are usually repeats but may differ in a detail not shown here. Identical values can stand only once. This is one part of the list. The main result of the screen is listed elsewhere. These columns were measured beside it and carry no call. The list favours compounds with an active or inconclusive main result. The note in brackets gives the kind of curve behind each potency; many fits are weak.
# Assay: qHTS Assay for Lipid Storage Modulators in Drosophila S3 Cells;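 for cell number change: cells counted by Cell Tracker Red CMTPX staining in the red channel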
# Details: BODIPY lipid droplet fluorescence, 18-24 h; for cell number change: measured here: cell count max response, cells fed with added oleic acid
# How it was run: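 Drosophila S3 cells got compounds at several concentrations plus oleic acid (400 uM solution). Laser-scanning cytometry with 488 nm excitation read lipid droplets at 500-530 nm and cells at 575-640 nm. Percent activity was relative to 20 uM Triacsin C.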
# [1] = measured here: cell number channel AC50, cells fed with added oleic acid
# [2] = measured here: lipid fluorescence (Fed channel) AC50, cells fed with added oleic acid
smiles,measurement,setting,value
Cc1cccc(OCCCC(=O)Nc2ccccc2C(F)(F)F)c1,cell number change,,-2.79%
O=C(O)CCCCC1SCC2NC(=O)NC21 (configuration not stated),cell number change,,-23.9% and -58.3%
same,AC50,[1],"2.91 µM [falling, partial curve, poor fit]"
same,AC50,[2],"14.6 µM [falling, partial curve] and 3.66 µM [falling, single point]"
CCN1CCc2nc(NC(=O)C(c3ccccc3)c3ccccc3)sc2C1,AC50,[2],"0.00461 µM [falling, full curve, poor fit]"
CC(=O)Nc1ccc(S(=O)(=O)NCCC(=O)OCc2csc(CC(=O)Nc3ccccc3C)n2)cc1,cell number change,,12.5%
same,AC50,[1],"0.116 µM [falling, full curve]"
Cc1ccc(S(=O)(=O)N(C)C)cc1NC(=O)COC(=O)CCC1CCCCC1,cell number change,,-3.21%
CCn1cc(CNC(=O)C2C3CCC(C3)C2C(=O)O)cn1 (configuration not stated),cell number change,,-15.8%
Cc1cc(NC(=O)C(C)SCC(=O)N(C)CC(=O)Nc2ccc(Br)cc2C)no1 (configuration not stated),cell number change,,9.19%
same,AC50,[2],"29.1 µM [falling, single point]"
O=C(CCCCC(=O)Nc1ccc(F)cc1)Nc1ccc(F)cc1,AC50,[2],"1.46 µM [rising, partial curve]"
CCOC(=O)C1C(c2cc(OC)c(OC)c(OC)c2)NC(=S)NC1(O)C(F)(F)F (configuration not stated),cell number change,,12.9%
same,AC50,[2],"1.03 µM [rising, partial curve]"
COc1ccc(OC)c(NC(=O)CSc2ccc3nnc(-c4ccccn4)n3n2)c1,cell number change,,24.1%
same,AC50,[2],"0.00517 µM [rising, full curve, poor fit]"
COc1cc(/C(C)=N\NC(N)=S)cc(OC)c1OC,cell number change,,3.28%
same,AC50,[2],"16.4 µM [falling, partial curve]"
O=C(CCNS(=O)(=O)c1ccccc1)N1CCOCC1,cell number change,,20.5%
same,AC50,[2],"29.1 µM [rising, single point]"
COc1ccc(NC(=O)c2ccc(NC(=O)CN(C)CC(=O)Nc3c(C)cccc3C)cc2)cc1,cell number change,,-20.5%
same,AC50,[2],"29.1 µM [falling, single point]"
O=C(NCCNC(=O)c1ccccc1)c1ccccc1,cell number change,,-18.5%
same,AC50,[2],"0.731 µM [falling, full curve, poor fit]"
O=C(CN1C(=O)NC(c2ccccc2)(c2ccccc2)C1=O)NCc1cccs1,cell number change,,13.8%
same,AC50,[1],"6.51 µM [rising, single point]"
CC(=O)NNC(=O)c1sc(=S)n2c1[nH]c(=O)c1sccc12,cell number change,,-20.6%
same,AC50,[1],"0.00461 µM [falling, full curve, poor fit]"
COc1ccc(S(=O)(=O)N2CCN(C(=O)N(C)C)C2C)cc1 (configuration not stated),cell number change,,16.4%
Nc1ccn(-c2ccc(Cl)cc2)c(=O)c1,cell number change,,-23.7%
same,AC50,[2],"0.00517 µM [rising, full curve, poor fit]"
O=S(=O)(Cc1cc(Oc2ccccc2)nc(-c2ccccc2)n1)c1ccccc1,cell number change,,0.766%
same,AC50,[2],"29.1 µM [rising, single point]"
CCOC(=O)c1c(C)c(C(=O)NCc2ccc3c(c2)OCO3)c(C)n1CC,cell number change,,-1.97%
same,AC50,[2],"2.91 µM [rising, partial curve, poor fit]"
Cc1ccc(S(=O)(=O)NCCCNS(C)(=O)=O)cc1,cell number change,,0.405%
CCN(C(=O)COC(=O)c1cc(S(=O)(=O)N2CCc3ccccc32)ccc1OC)C1CCS(=O)(=O)C1 (configuration not stated),cell number change,,7.67%
same,AC50,[2],"3.26 µM [rising, single point]"
CCN(CC)S(=O)(=O)c1cc(NC(=O)Cn2cnc3ccccc3c2=O)ccc1C,cell number change,,3.57%
same,AC50,[2],"2.91 µM [rising, single point]"
CCOC(=O)c1c(C)n(-c2ccc(C)cc2)c2c(CC(C)=O)c(Br)c(OC)c(O)c12,cell number change,,-34.2%
same,AC50,[1],"3.66 µM [falling, full curve]"
same,AC50,[2],"29.1 µM [falling, single point]"
Cc1cc(/C=C(/C#N)C(=O)O)c(C)n1CCC(C)C,cell number change,,-9.13%
same,AC50,[2],"7.31 µM [falling, full curve]"
COCCCNC(=O)/C(C#N)=C/c1ccc(F)cc1,cell number change,,-71.6%
same,AC50,[1],"23.1 µM [falling, single point]"
same,AC50,[2],"29.1 µM [falling, single point]"
CCOc1ccc(C(C(=O)NCCC(C)C)N(CCO)C(=O)c2snc(C(N)=O)c2N)cc1 (configuration not stated),cell number change,,2.1%
same,AC50,[2],"6.51 µM [falling, single point]"
Cc1ccccc1NC(=O)C(C)c1ccc(-c2ccccc2)c(F)c1 (configuration not stated),cell number change,,6.66%
same,AC50,[1],"0.103 µM [rising, full curve]"
CC(=O)Nc1ccc(NC(=O)COC(=O)c2cc([N+](=O)[O-])ccc2N2CCOCC2)cc1,cell number change,,35.5%
CCOc1ccc(/C=N/Nc2ccc(C(F)(F)F)cc2[N+](=O)[O-])cc1O,cell number change,,-1.07%
same,AC50,[2],"16.4 µM [falling, single point]"
O=C(Nc1ccc(Cl)cc1)Nc1ccc2c(c1)OCO2,cell number change,,23.2%
same,AC50,[2],"0.00461 µM [rising, full curve, poor fit]"
CCC(c1nnc(SCC(=O)Nc2ccc(C(N)=O)cc2)n1Cc1ccccc1)N(C)C (configuration not stated),cell number change,,-9.19%
O=C(c1cc(COc2ccc(F)cc2Cl)on1)N1CCC(OCc2cccnc2)CC1,cell number change,,-39.7%
same,AC50,[1],"29.1 µM [falling, single point]"
same,AC50,[2],"32.6 µM [falling, partial curve, poor fit]"
CCOc1cc(CN2CCN(Cc3ccc(C)o3)C(CCO)C2)ccc1OC (configuration not stated),cell number change,,-1.51%
CCC(C)NC(=O)C1=C(C)C(=O)OC12CCC(C)CC2 (configuration not stated),cell number change,,-29.8%
same,AC50,[1],"0.366 µM [falling, full curve]"
same,AC50,[2],"0.58 µM [falling, full curve]"
CC(=O)[C@@H]1[C@@H](C(=O)c2ccc(F)cc2)[C@]2(C(=O)Nc3ccccc32)[C@H]2C=Cc3cc(F)ccc3N12,cell number change,,6.54%
same,AC50,[2],"3.26 µM [rising, partial curve]"
COc1ccc(C(=O)N=c2sc3c(C)ccc(OC)c3n2C)cc1,AC50,[1],"6.51 µM [rising, single point]"
C=CCn1c(=O)c(C(=O)NCc2ccc(Cl)cc2)c(O)c2ccccc21,cell number change,,15.1%
Cc1ccc(NC(=O)C2CCN(C(=O)OC(C)(C)C)CC2)cc1S(=O)(=O)N1CCCCC1,cell number change,,12%
CN(CC(=O)Nc1c(Cl)cccc1Cl)C(=O)c1cccc(S(=O)(=O)NCc2ccccc2)c1,cell number change,,61.3%
same,AC50,[1],"10.3 µM [rising, partial curve]"
